Paper doi:10.1101/2024.04.08.588568
Positions count from the first letter of the chain named. Names and notes keep the numbering of the source. No constants are given. Whether binding was seen depends on the method and setting. Binding seen in cells or lysates may run through a third protein. Some binding calls cover weakened binding; strength is not graded here. Where a sequence is shown, tags or fusion partners need not be part of it.

Sequences of proteins named here, by UniProt entry; tags and fusion partners are left off. A change or cut given only in a name is not applied to a line headed by its entry. Residues count along the entry.
UniProt P0CG63, 1-76: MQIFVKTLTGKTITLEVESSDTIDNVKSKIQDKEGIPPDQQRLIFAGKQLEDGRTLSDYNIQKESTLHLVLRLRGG

T1: Atg32-3×HA (S. cerevisiae) (UniProt P40458)
T1 sequence: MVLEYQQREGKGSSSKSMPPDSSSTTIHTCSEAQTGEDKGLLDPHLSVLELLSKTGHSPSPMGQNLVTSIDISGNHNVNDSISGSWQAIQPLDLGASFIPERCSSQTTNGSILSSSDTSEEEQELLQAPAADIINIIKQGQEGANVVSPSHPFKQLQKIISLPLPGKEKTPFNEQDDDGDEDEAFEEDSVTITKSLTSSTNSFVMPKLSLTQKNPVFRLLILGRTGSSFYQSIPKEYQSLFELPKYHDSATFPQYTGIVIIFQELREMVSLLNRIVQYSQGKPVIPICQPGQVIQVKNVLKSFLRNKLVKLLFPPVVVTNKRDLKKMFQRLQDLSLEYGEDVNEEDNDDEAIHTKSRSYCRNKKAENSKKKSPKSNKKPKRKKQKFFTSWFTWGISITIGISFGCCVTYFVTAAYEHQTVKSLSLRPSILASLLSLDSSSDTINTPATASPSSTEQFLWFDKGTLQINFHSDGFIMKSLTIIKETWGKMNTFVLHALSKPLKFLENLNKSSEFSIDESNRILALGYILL

B1: Doa10-9×Myc (enzyme, UniProt P40318 1-1319)
chain: MDVDSDVNVSRLRDELHKVANEETDTATFNDDAPSGATCRICRGEATEDNPLFHPCKCRGSIKYMHESCLLEWVASKNIDISKPGADVKCDICHYPIQFKTIYAENMPEKIPFSLLLSKSILTFFEKARLALTIGLAAVLYIIGVPLVWNMFGKLYTMMLDGSSPYPGDFLKSLIYGYDQSATPELTTRAIFYQLLQNHSFTSLQFIMIVILHIALYFQYDMIVREDVFSKMVFHKIGPRLSPKDLKSRLKERFPMMDDRMVEYLAREMRAHDENRQEQGHDRLNMPAAAADNNNNVINPRNDNVPPQDPNDHRNFENLRHVDELDHDEATEEHENNDSDNSLPSGDDSSRILPGSSSDNEEDEEAEGQQQQQQPEEEADYRDHIEPNPIDMWANRRAQNEFDDLIAAQQNAINRPNAPVFIPPPAQNRAGNVDQDEQDFGAAVGVPPAQANPDDQGQGPLVINLKLKLLNVIAYFIIAVVFTAIYLAISYLFPTFIGFGLLKIYFGIFKVILRGLCHLYYLSGAHIAYNGLTKLVPKVDVAMSWISDHLIHDIIYLYNGYTENTMKHSIFIRALPALTTYLTSVSIVCASSNLVSRGYGRENGMSNPTRRLIFQILFALKCTFKVFTLFFIELAGFPILAGVMLDFSLFCPILASNSRMLWVPSICAIWPPFSLFVYWTIGTLYMYWFAKYIGMIRKNIIRPGVLFFIRSPEDPNIKILHDSLIHPMSIQLSRLCLSMFIYAIFIVLGFGFHTRIFFPFMLKSNLLSVPEAYKPTSIISWKFNTILLTLYFTKRILESSSYVKPLLERYWKTIFKLCSRKLRLSSFILGKDTPTERGHIVYRNLFYKYIAAKNAEWSNQELFTKPKTLEQAEELFGQVRDVHAYFVPDGVLMRVPSSDIVSRNYVQTMFVPVTKDDKLLKPLDLERIKERNKRAAGEFGYLDEQNTEYDQYYIVYVPPDFRLRYMTLLGLVWLFASILMLGVTFISQALINFVCSFGFLPVVKLLLGERNKVYVAWKELSDISYSYLNIYYVCVGSVCLSKIAKDILHFTEGQNTLDEHAVDENEVEEVEHDIPERDINNAPVNNINNVEEGQGIFMAIFNSIFDSMLVKYNLMVFIAIMIAVIRTMVSWVVLTDGILACYNYLTIRVFGNSSYTIGNSKWFKYDESLLFVVWIISSMVNFGTGYKSLKLFFRNRNTSKLNFLKTMALELFKQGFLHMVIYVLPIIILSLVFLRDVSTKQIIDISHGSRSFTLSLNESFPTWTRMQDIYFGLLIALESFTFFFQATVLFIQWFKSTVQNVKDEVYTKGRALENLPDES
B2: Doa10^C39S-9×Myc (enzyme, UniProt P40318 1-1319)
chain: B1 chain with C39S
B3: Get1-GFP (protein, UniProt P53192 1-235)
chain: MHWAAAVAIFFIVVTKFLQYTNKYHEKWISKFAPGNELSKKYLAKVKERHELKEFNNSISAQDNYAKWTKNNRKLDSLDKEINNLKDEIQSENKAFQAHLHKLRLLALTVPFFVFKIMYGKTPVYKLSSSTSTLFPTFVSGVWSQGWLYVLLHPLRTISQKWHIMEGKFGASKFDDMALQSVSLGIWVWALMNVINGVEFIVKQLFLTPKMEAPASVETQEEKALDAVDDAIILD

What was measured:
[1] = molecular target: T1, Atg32-3×HA (S. cerevisiae); assay: co-IP
[2] = molecular target: T1, Atg32-3×HA (S. cerevisiae); assay: co-IP + cross-linking
[3] = molecular target: T1, Atg32-3×HA (S. cerevisiae); assay: co-IP; remark: listed apart in the source

Molecule	binding [3]	also measured
ubiquitin (from UniProt P0CG63 1-76)		binding [1]: binds
B1		binding [2]: binds
B2	binds	
B3	binds	
